Patent publication US20230108492A1
No constants are given. Whether binding was seen depends on the method and setting. In cells and extracts the contact can be indirect. Some binding calls cover weakened binding; strength is not graded here.

Sequences of proteins named here, by UniProt entry; tags and fusion partners are left off.
UniProt P29351: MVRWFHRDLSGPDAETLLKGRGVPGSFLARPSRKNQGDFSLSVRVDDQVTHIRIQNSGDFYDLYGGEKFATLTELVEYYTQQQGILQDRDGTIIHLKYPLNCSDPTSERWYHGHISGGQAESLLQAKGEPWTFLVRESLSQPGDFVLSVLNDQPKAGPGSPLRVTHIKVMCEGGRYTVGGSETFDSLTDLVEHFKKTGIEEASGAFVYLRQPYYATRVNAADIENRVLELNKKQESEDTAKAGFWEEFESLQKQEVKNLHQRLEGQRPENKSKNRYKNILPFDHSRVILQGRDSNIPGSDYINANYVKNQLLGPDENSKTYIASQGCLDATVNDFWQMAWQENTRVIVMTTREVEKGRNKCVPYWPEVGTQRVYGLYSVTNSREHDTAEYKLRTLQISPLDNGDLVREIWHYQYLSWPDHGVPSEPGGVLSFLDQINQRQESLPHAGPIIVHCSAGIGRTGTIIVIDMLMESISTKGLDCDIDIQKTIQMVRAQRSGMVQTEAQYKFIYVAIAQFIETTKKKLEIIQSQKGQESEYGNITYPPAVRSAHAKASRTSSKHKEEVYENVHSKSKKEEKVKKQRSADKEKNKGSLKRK

Assays:
SHP-1 (mouse) [1] = biological target: SHP-1 (mouse) (UniProt P29351); assay: co-immunoprecipitation: Siglec G immunoprecipitated from CD24Fc-stimulated CD24-/- spleen cells, probed with anti-SHP-1
SHP-1 (mouse) [2] = biological target: SHP-1 (mouse) (UniProt P29351); assay: co-immunoprecipitation: Siglec G immunoprecipitated, probed with anti-SHP-1 (FIG. 5C legend)

B1: Siglec G (mouse homologue of human Siglec 10) (receptor, UniProt Q80ZE3 18-688, looked up)
chain: QMESYFLQVQRIVKAQEGLCIFVPCSFSSPEGKWLNRSPLYGYWFKGIRKPSLSFPVATNNKDKVLEWEARGRFQLLGDISKKNCSLLIKDVQWGDSTNYFFRMERGFERFSFKEEFRLQVEALTQKPDIFIPEVLEPGEPVTVVCLFSWTFNQCPAPSFSWMGDAVSFQESRPHTSNYSVLSFIPGLQHHDTELTCQLDFSRMSTQRTVRLRVAYAPRSLAISIFHDNVSVPDLHENPSHLEVQQGQSLRLLCTADSQPPATLSWVLEDQVLSWSSPVGSRTLALELPWVKAGDSGHYTCQAENRLGSQQHTLDLSVLYPPQDLRVTVSQANRTVLEILRNAISLPVLEGQSLCLVCVTYSNPPANVSWAWVTQTLIPIQSSEPGVLELPLVQREHEGEFTCAAQNPLGAQRISLSLSVHYPPQMSSPSCSWEAKGLHCNCSSRAWPAPSLRWRLGEGLLEGNSSNASFTVTFSSLGPWVNSSLSLLQELGPSLWLSCESWNTHGAQTTSVLLLPDKDSATAFSKGAVLGFGITALLALCLIVVIVKTLQKKGTQEEPSRPKLSRGSTILDYINVVPKTRSLARNWKAEPDAPSRSSPLDTHFPKPKKKQKDPHFTYPGCPDPTSSSQVPVSENNPEELHYAALNFSRLRLQETQDPQDTYSDYTEVRVH
SHP-1 (mouse) [1]
  binding: binds
SHP-1 (mouse) [2]
  binding: binds
